Changes are numbered by the printed parent chain. Some of the results follow.

From publication PMC8384837 come the findings set out here.

Common to all, as to settings: yeast three-hybrid, YBZ-1, SC-Leu-His + 0.5 mM 3-AT, 4 days
Assay [1] has as its target T1, PUM1 PUF domain R6-AFR N1043A + Y1044F + Q1047R (Homo sapiens) (UniProt Q14671).
T1 sequence: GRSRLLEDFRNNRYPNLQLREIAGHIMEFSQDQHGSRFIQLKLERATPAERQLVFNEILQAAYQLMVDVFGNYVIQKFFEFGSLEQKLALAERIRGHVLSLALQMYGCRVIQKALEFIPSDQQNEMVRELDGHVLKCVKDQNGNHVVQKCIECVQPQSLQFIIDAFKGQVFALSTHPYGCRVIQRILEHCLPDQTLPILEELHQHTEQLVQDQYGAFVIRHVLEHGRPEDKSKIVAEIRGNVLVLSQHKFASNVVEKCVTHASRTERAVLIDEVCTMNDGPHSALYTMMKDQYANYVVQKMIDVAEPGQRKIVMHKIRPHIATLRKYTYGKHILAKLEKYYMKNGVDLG

Assay [2] addresses T2, PUM1 PUF domain R6-FRI N1043F + Y1044R + Q1047I (Homo sapiens) (UniProt Q14671).
T2 sequence: T1 sequence with A216F, F217R, R220I

Assay [3] deals with T3, PUM1 PUF domain R6-FRL N1043F + Y1044R + Q1047L (Homo sapiens) (UniProt Q14671).
T3 sequence: T1 sequence with A216F, F217R, R220L

The target in assay [4] is T4, PUM1 PUF domain R6-FYL N1043F + Q1047L (Homo sapiens) (UniProt Q14671).
T4 sequence: T1 sequence with A216F, F217Y, R220L

Assay [5] addresses T5, PUM1 PUF domain R6-GFA N1043G + Y1044F + Q1047A (Homo sapiens) (UniProt Q14671).
T5 sequence: T1 sequence with A216G, R220A

Assay [6] concerns the target T6, PUM1 PUF domain R6-GFS N1043G + Y1044F + Q1047S (Homo sapiens) (UniProt Q14671).
T6 sequence: T1 sequence with A216G, R220S

Assay [7] addresses T7, PUM1 PUF domain R6-GWI N1043G + Y1044W + Q1047I (Homo sapiens) (UniProt Q14671).
T7 sequence: T1 sequence with A216G, F217W, R220I

In assay [8] the target is T8, PUM1 PUF domain R6-GWM N1043G + Y1044W + Q1047M (Homo sapiens) (UniProt Q14671).
T8 sequence: T1 sequence with A216G, F217W, R220M

In assay [9] the target is T9, PUM1 PUF domain R6-GYQ N1043G (Homo sapiens) (UniProt Q14671).
T9 sequence: T1 sequence with A216G, F217Y, R220Q

Assay [10] deals with T10, PUM1 PUF domain R6-HFS N1043H + Y1044F + Q1047S (Homo sapiens) (UniProt Q14671).
T10 sequence: T1 sequence with A216H, R220S

Assay [11] concerns the target T11, PUM1 PUF domain R6-KFS N1043K + Y1044F + Q1047S (Homo sapiens) (UniProt Q14671).
T11 sequence: T1 sequence with A216K, R220S

For assay [12], the target named is T12, PUM1 PUF domain R6-MYS N1043M + Q1047S (Homo sapiens) (UniProt Q14671).
T12 sequence: T1 sequence with A216M, F217Y, R220S

The target in assay [13] is T13, PUM1 PUF domain R6-NFC Y1044F + Q1047C (Homo sapiens) (UniProt Q14671).
T13 sequence: T1 sequence with A216N, R220C

Assay [14] has as its target T14, PUM1 PUF domain R6-QFR N1043Q + Y1044F + Q1047R (Homo sapiens) (UniProt Q14671).
T14 sequence: T1 sequence with A216Q

The target of assay [15] is T15, PUM1 PUF domain R6-RFG N1043R + Y1044F + Q1047G (Homo sapiens) (UniProt Q14671).
T15 sequence: T1 sequence with A216R, R220G

The target in assay [16] is T16, PUM1 PUF domain R6-RFI N1043R + Y1044F + Q1047I (Homo sapiens) (UniProt Q14671).
T16 sequence: T1 sequence with A216R, R220I

The target of assay [17] is T17, PUM1 PUF domain R6-RHS N1043R + Y1044H + Q1047S (Homo sapiens) (UniProt Q14671).
T17 sequence: T1 sequence with A216R, F217H, R220S

Assay [18] deals with T18, PUM1 PUF domain R6-RYL N1043R + Q1047L (Homo sapiens) (UniProt Q14671).
T18 sequence: T1 sequence with A216R, F217Y, R220L

Assay [19] addresses T19, PUM1 PUF domain R6-SWR N1043S + Y1044W + Q1047R (Homo sapiens) (UniProt Q14671).
T19 sequence: T1 sequence with A216S, F217W

The target in assay [20] is T20, PUM1 PUF domain R6-SYA N1043S + Q1047A (Homo sapiens) (UniProt Q14671).
T20 sequence: T1 sequence with A216S, F217Y, R220A

For “GGCUAGAACUAGUGGAUCCCCCGGCGCCCGGCGGCUCGAGCCCGGGUAAGUGAAAAUAGUCUGCAUGCCGCCGGGCGCCAUGCCUGCAGGUCGACUCUAGAAAACAUG”, the binding signal (log2 enrichment (interaction score)) in assay [1] was -1.36; in assay [2] it was -1.41; in [3], -1.79; in assay [4] it was -0.44; in [5] it was -0.74; in [6], -1.68. The binding signal (log2 enrichment (interaction score)) is -1.77 in assay [7]; -1.32 in assay [8]; -1.41 in assay [9]; -1.66 in assay [10]; -2.05 in assay [11]; -2.11 in assay [12]. In addition, the binding signal (log2 enrichment (interaction score)) in assay [13] is -1.29; in assay [14], -1.89; in assay [15] it was -0.46; in assay [16] it was -0.77; in assay [17], -2.36; in assay [18], -1.04. In addition, the binding signal (log2 enrichment (interaction score)) in assay [19] was -0.44; in assay [20], -0.61.
